# Experimental data from PubChem BioAssay (NCATS).
# Chains of the proteins cited; added tags and fusions are not shown. Lines headed by an entry give the natural chain unless they say otherwise; changes in a name come on top.
# UniProt P10828: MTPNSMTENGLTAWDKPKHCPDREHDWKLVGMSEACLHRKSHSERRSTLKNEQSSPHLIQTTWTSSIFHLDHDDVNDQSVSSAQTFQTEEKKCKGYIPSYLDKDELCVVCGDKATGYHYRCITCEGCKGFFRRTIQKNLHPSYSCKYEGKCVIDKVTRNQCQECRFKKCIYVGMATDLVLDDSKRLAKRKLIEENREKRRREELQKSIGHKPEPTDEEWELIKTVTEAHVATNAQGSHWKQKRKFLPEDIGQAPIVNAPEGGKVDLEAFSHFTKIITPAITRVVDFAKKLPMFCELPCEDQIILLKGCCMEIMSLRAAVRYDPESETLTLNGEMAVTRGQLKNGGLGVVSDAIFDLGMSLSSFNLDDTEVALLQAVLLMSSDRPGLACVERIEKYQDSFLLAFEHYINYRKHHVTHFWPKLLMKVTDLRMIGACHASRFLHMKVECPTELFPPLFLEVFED
# UniProt Q03181: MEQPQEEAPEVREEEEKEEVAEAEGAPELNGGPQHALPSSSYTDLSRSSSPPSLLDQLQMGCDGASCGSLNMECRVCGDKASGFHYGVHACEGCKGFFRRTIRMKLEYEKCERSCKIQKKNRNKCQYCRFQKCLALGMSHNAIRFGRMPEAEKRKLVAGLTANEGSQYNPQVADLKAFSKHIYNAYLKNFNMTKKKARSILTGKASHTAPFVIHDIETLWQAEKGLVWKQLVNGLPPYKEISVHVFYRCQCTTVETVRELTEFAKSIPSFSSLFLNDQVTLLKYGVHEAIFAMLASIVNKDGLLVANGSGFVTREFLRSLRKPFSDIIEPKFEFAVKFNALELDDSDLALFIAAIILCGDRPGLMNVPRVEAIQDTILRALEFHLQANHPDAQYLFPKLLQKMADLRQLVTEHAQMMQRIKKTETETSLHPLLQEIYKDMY
# UniProt P19793: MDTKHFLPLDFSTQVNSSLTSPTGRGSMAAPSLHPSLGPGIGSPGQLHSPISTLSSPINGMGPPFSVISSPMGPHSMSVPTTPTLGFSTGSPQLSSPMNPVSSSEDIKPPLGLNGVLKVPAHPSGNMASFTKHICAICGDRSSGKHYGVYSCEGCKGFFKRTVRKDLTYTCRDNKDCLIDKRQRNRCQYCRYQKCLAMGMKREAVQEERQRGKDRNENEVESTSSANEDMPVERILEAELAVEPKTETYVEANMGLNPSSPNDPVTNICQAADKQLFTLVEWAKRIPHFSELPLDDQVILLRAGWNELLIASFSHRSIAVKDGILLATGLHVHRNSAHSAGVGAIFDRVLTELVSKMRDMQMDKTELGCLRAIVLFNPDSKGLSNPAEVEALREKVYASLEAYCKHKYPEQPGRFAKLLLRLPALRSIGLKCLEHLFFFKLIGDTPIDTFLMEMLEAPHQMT
# UniProt Q07869: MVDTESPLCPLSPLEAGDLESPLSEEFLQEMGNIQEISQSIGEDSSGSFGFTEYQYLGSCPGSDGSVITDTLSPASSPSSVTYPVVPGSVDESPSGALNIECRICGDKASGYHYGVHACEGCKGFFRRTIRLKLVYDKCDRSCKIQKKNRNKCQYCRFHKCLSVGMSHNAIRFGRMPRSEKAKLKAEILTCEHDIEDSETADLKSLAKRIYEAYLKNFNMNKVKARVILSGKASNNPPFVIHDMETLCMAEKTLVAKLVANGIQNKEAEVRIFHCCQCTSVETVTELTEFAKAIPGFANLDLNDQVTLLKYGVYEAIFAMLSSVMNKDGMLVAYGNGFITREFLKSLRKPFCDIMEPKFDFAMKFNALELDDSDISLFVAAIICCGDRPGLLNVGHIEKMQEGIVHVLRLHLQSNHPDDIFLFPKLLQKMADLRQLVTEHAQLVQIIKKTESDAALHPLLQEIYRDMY
# UniProt Q07343: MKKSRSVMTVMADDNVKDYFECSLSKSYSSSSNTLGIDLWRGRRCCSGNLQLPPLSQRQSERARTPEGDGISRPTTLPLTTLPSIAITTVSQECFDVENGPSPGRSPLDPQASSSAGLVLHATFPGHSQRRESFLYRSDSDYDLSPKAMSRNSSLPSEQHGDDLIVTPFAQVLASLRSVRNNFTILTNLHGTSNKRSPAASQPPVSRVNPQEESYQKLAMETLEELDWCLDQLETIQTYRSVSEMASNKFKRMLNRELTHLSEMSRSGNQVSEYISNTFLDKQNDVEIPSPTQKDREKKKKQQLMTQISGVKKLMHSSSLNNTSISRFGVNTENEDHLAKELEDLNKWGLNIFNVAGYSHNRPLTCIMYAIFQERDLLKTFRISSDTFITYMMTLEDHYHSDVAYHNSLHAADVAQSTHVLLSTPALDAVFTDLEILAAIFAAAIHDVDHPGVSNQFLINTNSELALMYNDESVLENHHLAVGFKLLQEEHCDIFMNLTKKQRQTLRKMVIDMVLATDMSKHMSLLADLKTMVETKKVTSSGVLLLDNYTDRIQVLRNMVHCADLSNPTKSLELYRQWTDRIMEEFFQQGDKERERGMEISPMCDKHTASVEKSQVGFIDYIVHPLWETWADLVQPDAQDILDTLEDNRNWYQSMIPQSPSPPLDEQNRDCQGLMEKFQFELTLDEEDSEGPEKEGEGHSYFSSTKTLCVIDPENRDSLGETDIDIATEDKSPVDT
# UniProt P01375, whole entry, looked up: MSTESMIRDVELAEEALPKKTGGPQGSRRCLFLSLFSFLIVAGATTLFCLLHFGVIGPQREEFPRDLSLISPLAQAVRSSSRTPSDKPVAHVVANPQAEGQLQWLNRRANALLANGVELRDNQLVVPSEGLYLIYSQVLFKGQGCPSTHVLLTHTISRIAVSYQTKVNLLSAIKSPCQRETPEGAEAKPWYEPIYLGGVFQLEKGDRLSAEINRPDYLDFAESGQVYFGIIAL
# UniProt P51449: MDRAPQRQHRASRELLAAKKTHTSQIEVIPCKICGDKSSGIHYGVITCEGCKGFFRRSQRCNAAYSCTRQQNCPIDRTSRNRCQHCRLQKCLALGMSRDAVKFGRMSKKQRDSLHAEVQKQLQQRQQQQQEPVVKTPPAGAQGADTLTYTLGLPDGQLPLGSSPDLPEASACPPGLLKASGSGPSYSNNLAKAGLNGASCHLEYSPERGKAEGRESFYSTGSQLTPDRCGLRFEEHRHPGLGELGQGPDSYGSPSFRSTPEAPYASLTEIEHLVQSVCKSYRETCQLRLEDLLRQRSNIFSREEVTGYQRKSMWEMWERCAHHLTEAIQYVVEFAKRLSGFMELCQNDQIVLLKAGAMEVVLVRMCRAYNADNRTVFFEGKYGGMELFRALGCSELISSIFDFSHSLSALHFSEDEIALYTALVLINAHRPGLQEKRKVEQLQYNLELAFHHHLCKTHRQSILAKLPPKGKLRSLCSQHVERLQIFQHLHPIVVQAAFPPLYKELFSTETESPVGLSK
# This list was built around the results that the source calls inconclusive (neither active nor inactive); the mix of calls is not that of the screen. For some of these results: Where the call is inconclusive, the potency comes from a doubtful curve fit. For some of these results: A note “side channel” means that the fit belongs to a control or component signal, not to the main read-out. Active and inactive are the calls of the source. Unless noted, calls follow the shape of the full dose curve.
# What was measured:
# [1] = molecular target: Bile acid receptor (Homo sapiens) (UniProt Q96RI1); assay: qHTS assay for small molecule agonists of farnesoid X receptor signaling (AID 588527); details: HEK293T FXR-UAS-bla, beta-lactamase ratio, 16 h; activation: stronger effect = higher value; also: potency is read from the fitted curve at half-maximal effect;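 as to activation: 0% = vehicle basal and 100% = reference agonist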
# Summary of the method: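 Quantitative HTS used FXR-UAS-bla HEK293T cells with 16 h compound incubation at 37 C. EC50 values came from concentration-response curves normalized to chenodeoxycholic acid.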
# [2] = molecular target: Peroxisome proliferator-activated receptor gamma (Homo sapiens) (UniProt P37231); assay: qHTS assay for small molecule agonists of peroxisome proliferator-activated receptor gamma signaling (AID 588536; active = well fitted curve in the direction sought with a large enough effect in the signal ratio, with a control signal flat, not every such curve was filed as active; inconclusive = small, poorly fitted or top-dose-only effect, or effect the other way, or a change in a side signal; inactive = no such curve, though single readings can be large or run the other way; the % refers to the signal ratio;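 also: 0% = DMSO basal wells and 100% = rosiglitazone at 2 µM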); details: HEK293 PPARg-UAS-bla, beta-lactamase ratio, 16 h; activation: at 76.7 µM (top of the series), percent of rosiglitazone response, DMSO as zero
# Summary of the method: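 Using GeneBLAzer HEK293 cells, response was quantified by CCF4 fluorescence and normalized between basal DMSO (0%) and rosiglitazone 2 uM (100%); curves yielded half-maximal stimulation concentration and efficacy.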
# [3] = molecular target: Peroxisome proliferator-activated receptor gamma (Homo sapiens) (UniProt P37231); assay: qHTS assay for small molecule antagonists of peroxisome proliferator-activated receptor gamma signaling (AID 588537; active = well fitted inhibition curve with a large enough effect in the signal ratio, with a control signal flat, not every such curve was filed as active; inconclusive = small, poorly fitted or top-dose-only effect, or effect the other way, or a change in a side signal; the % refers to the signal ratio;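 also: reporter cells co-stimulated with 50 nM rosiglitazone agonist during compound treatment; % of control where 0% means no effect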); details: HEK293 PPARg-UAS-bla, beta-lactamase ratio, antagonist mode; activity, negative = inhibition: at 76.8 µM (top of the series) unless noted
# Summary of the method: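 Fluorescence at 460 and 530 nm (405 nm excitation) reported beta-lactamase cleavage of CCF4 after 2 h room-temperature loading. HEK293 reporter cells in 1% charcoal/dextran-treated FBS had received compound and rosiglitazone for 16 h.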
# [4] = molecular target: Thyroid hormone receptor beta (Homo sapiens) (UniProt P10828); assay: qHTS assay for small molecule antagonists of thyroid hormone receptor beta signaling (AID 588547; active = well fitted inhibition curve with a large enough effect in the signal ratio, with a control signal flat, not every such curve was filed as active; inconclusive = small, poorly fitted or top-dose-only effect, or effect the other way, or a change in a side signal; the % refers to the signal ratio;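 also: cells stimulated with 0.4 nM T3 agonist during compound exposure; % is scaled to controls: 0 for no effect and ±100 for the full control effect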); details: TR-UAS-bla HEK293, beta-lactamase ratio, antagonist mode, 18 h
# Summary of the method: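 TR-UAS-bla GripTite HEK293 cells in 2% charcoal/dextran FBS medium; compounds 0.59 nM to 92 uM with T3 at 0.4nM final, 18 h at 37 C. Beta-lactamase read by CCF4 fluorescence (460/530 nm); Hill fits gave IC50 and efficacy.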
# [5] = qHTS assay for small molecule activators of the p53 signaling pathway (AID 651743; active = well fitted activation curve with a large enough effect in the signal ratio, not every such curve was filed as active; inconclusive = small, poorly fitted or top-dose-only effect, or a change in a side signal; the % refers to the signal ratio; also: potency is read from the fitted curve at half-maximal effect); details: HCT-116 p53RE-bla, beta-lactamase FRET ratio, 16 h; activation: stronger effect = higher value
# Summary of the method: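 Following 16 hours of compound exposure at 37 C, HCT-116 cells bearing the p53RE-bla reporter were loaded with LiveBLAzer B/G FRET substrate for 2 hours at room temperature and fluorescence intensity was recorded.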
# [6] = molecular target: Glucocorticoid receptor (Homo sapiens) (UniProt P04150); assay: qHTS assay for small molecule agonists of glucocorticoid receptor signaling (AID 588532; active = well fitted curve in the direction sought with a large enough effect in the signal ratio, with a control signal flat; inconclusive = small, poorly fitted or top-dose-only effect, or a change in a side signal; inactive = no such curve, though single readings can be large or run the other way; the % refers to the signal ratio; also: potency is read from the fitted curve at half-maximal effect;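 as to activation: 100% = dexamethasone at 0.1 µM and 0% = DMSO only wells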); details: HeLa MMTV-bla, beta-lactamase ratio, agonist, 18 h; activation: stronger effect = higher value, percent of dexamethasone control, DMSO zero
# Summary of the method: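 HeLa GRE-bla reporter cells; 18 h compound exposure at 37 C; 2 h CCF4 loading at room temperature; fluorescence at 460 and 530 nm; EC50 by Hill equation.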
# [7] = molecular target: Peroxisome proliferator-activated receptor delta (Homo sapiens) (UniProt Q03181); assay: qHTS assay for small molecule agonists of peroxisome proliferator-activated receptor delta signaling (AID 588534); details: HEK293T PPARdelta-UAS-bla, beta-lactamase ratio, 18 h; activation: at 76.7 µM (top of the series) unless noted;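 also: 0% = DMSO basal wells and 100% = positive control agonist at 10 µM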
# Summary of the method: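 Agonist-mode qHTS; reporter cells, 5 hrs 37 C pre-incubation; compound titration, 18 hrs 37 C; CCF4 dye, 2 hrs RT; fluorescence read. EC50/efficacy via Hill fit.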
# [8] = molecular target: Glucocorticoid receptor (Homo sapiens) (UniProt P04150); assay: qHTS assay for small molecule antagonists of glucocorticoid receptor signaling (AID 588533; active = well fitted inhibition curve with a large enough effect in the signal ratio, with a control signal flat, not every such curve was filed as active; inconclusive = small, poorly fitted or top-dose-only effect, or effect the other way, or a change in a side signal; the % refers to the signal ratio;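 also: cells stimulated with 2 nM dexamethasone as agonist; % is scaled to controls: 0 for no effect and ±100 for the full control effect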); details: HeLa MMTV-bla, GRE beta-lactamase ratio, antagonist mode, 18 h; activity change, negative = inhibition: at 76.8 µM (top of the series)
# [9] = molecular target: Retinoic acid receptor RXR-alpha (Homo sapiens) (UniProt P19793); assay: qHTS assay for small molecule antagonists of retinoid X receptor alpha signaling (AID 588546; active = well fitted inhibition curve with a large enough effect in the signal ratio, with a control signal flat, not every such curve was filed as active; inconclusive = small, poorly fitted or top-dose-only effect, or effect the other way, or a change in a side signal; inactive = no such curve, though single readings can be large or run the other way; the % refers to the signal ratio; also: potency is read from the fitted curve at half-maximal effect;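 as to max response: cells stimulated with 9-cis-retinoic acid as agonist; % is scaled to controls: 0 for no effect and ±100 for the full control effect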); details: HEK293T RXRa-UAS-bla, beta-lactamase ratio, antagonist mode
# Summary of the method: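 Beta-lactamase reporter inhibition, read as CCF4 fluorescence ratio (ex 405, em 460/530 nm) after 2 h at RT. HEK293T UAS-bla cells, 2500/well, were stimulated with 9-cis-RA at 500 or 100 nM final alongside test compound for 18 h at 37 C.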
# [10] = qHTS assay for small molecule agonists of the antioxidant response element (ARE) signaling pathway (AID 651741; active = well fitted activation curve with a large enough effect in the signal ratio; inconclusive = small, poorly fitted or top-dose-only effect, or effect the other way, or a change in a side signal; the % refers to the signal ratio; also: potency is read from the fitted curve at half-maximal effect; as to activation: % of control where 0% means no effect); details: HepG2 ARE-bla reporter, beta-lactamase FRET ratio, 16 h; activation: at 96 µM (top of the series) unless noted
# Summary of the method: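 Stably integrated ARE-beta-lactamase reporter HepG2 cells; 16 h compound incubation, 37 C; LiveBLAzer FRET substrate 2 h at room temperature; fluorescence intensity.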
# [11] = molecular target: Peroxisome proliferator-activated receptor alpha (Homo sapiens) (UniProt Q07869); assay: qHTS assay for small molecule agonists of the peroxisome proliferator-activated receptor alpha (PPARalpha) signaling pathway (AID 651778; active = well fitted curve in the direction sought with a large enough effect; inconclusive = small, poorly fitted or top-dose-only effect, or another doubt; inactive = no such curve, though single readings can be large; an effect the other way counts as inactive or inconclusive; also: potency is read from the fitted curve at half-maximal effect); details: PathHunter PPARalpha complementation, chemiluminescence, 6 h; max response: stronger effect = higher value
# Summary of the method: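 Enzyme-fragment complementation assay in which ligand-bound PPARalpha translocates and forms an active enzyme that generates chemiluminescence. Cells were plated overnight, exposed to compound for 6 hr at 37 C, and then given detection reagent for 60 min at room temperature.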
# [12] = qHTS assay for small molecule agonists of the antioxidant response element (ARE) signaling pathway measured by Nrf2-dependant transcriptional activity (AID 720636; active = well fitted curve in the direction sought with a large enough effect in the repeat runs; inconclusive = weak or mixed curves; inactive = no such curve, though single readings can be large; an effect the other way counts as inactive or inconclusive;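 also: HepG2 cells with an ARE-driven luciferase reporter; % of control where 0% means no effect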)
# Summary of the method: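 First, ARE-luc HepG2 cells attached for 6 hr at 37 C in 1% dialyzed FBS medium. Next, compound or DMSO was added and incubated 16 hr. Finally, ONE-Glo reagent was added and luminescence measured after 30 min.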
# [13] = molecular target: 3',5'-cyclic-AMP phosphodiesterase 4B (Homo sapiens) (UniProt Q07343); assay: qHTS Assay for Inhibitors of PDE-IV (AID 607; active = well fitted activation curve with a large enough effect in the main read-out, with a control signal flat, not every such curve was filed as active; inconclusive = small, poorly fitted or top-dose-only effect, or effect the other way, or a change in a side signal; also: % of control where 0% means no effect); details: HEK293 ACTOne CNG channel cells, membrane potential fluorescence; activation (PDE inhibition): at 22.9 µM (top of the series)
# Summary of the method: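 Live HEK293 cells with a modified cyclic nucleotide-gated (CNG) channel report intracellular cAMP via membrane-potential dye fluorescence (ex 535/em 590 nm). Endogenous PDE-IV was targeted. Compounds were tested at up to 22.9 uM final; RO 20-1724 100 uM served as control.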
# [14] = Cell Viability - LYMP2-005 (AID 967; active = well fitted curve in the direction sought with a large enough effect; inconclusive = small, poorly fitted or top-dose-only effect, or another doubt; inactive = no such curve, though single readings can be large; an effect the other way counts as inactive or inconclusive; also: potency is read from the fitted curve at half-maximal effect)
# Summary of the method: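 LYMP2-005 human lymphoblastoid cells (2500/well) were treated with compounds for 24 h at 37 C. Intracellular ATP was then measured by CellTiter-Glo luminescence after 30 min at room temperature. AC50 values came from Hill-equation fits of qHTS concentration-response data.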
# [15] = molecular target: Retinoic acid receptor RXR-alpha (Homo sapiens) (UniProt P19793); assay: qHTS assay for small molecule agonists of retinoid X receptor alpha signaling (AID 588544); details: HEK293T RXRa-UAS-bla, beta-lactamase reporter, 18 h; activation: at 76.7 µM (top of the series);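 also: 0% = DMSO basal wells and 100% = reference agonist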
# [16] = molecular target: Tumor necrosis factor (Homo sapiens) (UniProt P01375); assay: qHTS assay to identify small molecules that stimulate Tumor Necrosis Factor-alpha (TNF-alpha) secretion (AID 651757; active = well fitted curve in the direction sought with a large enough effect in the signal ratio; inconclusive = small, poorly fitted or top-dose-only effect, or a change in a side signal; inactive = no such curve, though single readings can be large or run the other way; the % refers to the signal ratio; also: 0% is about no effect); details: Human cells, HTRF 665/615 ratio; activation (TNF-alpha secretion): at 92.2 µM (top of the series)
# Summary of the method: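 Human monocytic THP-1 cells are plated, treated with compound and held at 37 C for 17 hrs. Labeled anti-TNF-alpha antibody mixture is then added; after 3 hr at room temperature, TR-FRET signal reports secreted TNF-alpha.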
# [17] = qHTS assay to identify small molecules that stimulate interleukin-8 (IL-8) secretion (AID 651758; active = well fitted activation curve with a large enough effect in the signal ratio; inconclusive = small, poorly fitted or top-dose-only effect, or effect the other way, or a change in a side signal; the % refers to the signal ratio; also: 0% is about no effect); details: HTRF ratio (665/615); activation: at 92.2 µM (top of the series)
# Summary of the method: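 Compounds are added to THP-1 cells (2000 per well) and left 16 hrs at 37 C. A labeled anti-IL-8 antibody pair is then added, and IL-8 secretion is measured by time-resolved FRET after 1-3 hrs at room temperature.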
# [18] = molecular target: Nuclear receptor ROR-gamma (Homo sapiens) (UniProt P51449); assay: qHTS assay for small molecule antagonists of the retinoid-related orphan receptor gamma (ROR-gamma) signaling pathway (AID 651802; active = well fitted curve in the direction sought with a large enough effect; inconclusive = small, poorly fitted or top-dose-only effect, or another doubt; inactive = no such curve, though single readings can be large; an effect the other way counts as inactive or inconclusive;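 also: CHO cells with doxycycline-induced ROR-gamma expression; % is scaled to controls: 0 for no effect and ±100 for the full control effect; nearly all actives have a fitted effect of over 60% in size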)
# Summary of the method: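 Steps: cells dispensed; compound or DMSO transferred by pin tool; doxycycline added to induce the ROR response element-driven luciferase; plates held 16hr at 37C; ONE-Glo added and luminescence measured.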
# [19] = molecular target: Vitamin D3 receptor (Homo sapiens) (UniProt P11473); assay: qHTS assay for small molecule antagonists of vitamin D receptor signaling (AID 588541); details: HEK293T VDR-UAS-bla, beta-lactamase ratio, antagonist mode; activity change, negative = inhibition: at 76.7 µM (top of the series);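 also: receptor activated by calcitriol during compound treatment; % is scaled to controls: 0 for no effect and ±100 for the full control effect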
# [20] = molecular target: Thyroid hormone receptor beta (Homo sapiens) (UniProt P10828); assay: qHTS assay for small molecule agonists of thyroid hormone receptor beta signaling (AID 588545); details: TR-UAS-bla GripTite HEK 293, beta-lactamase ratio, agonist mode, 18 h; activation: at 76.7 µM, percent of T3 response, DMSO as zero
# Summary of the method: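 Agonist activity was read as beta-lactamase CCF4 fluorescence (405 ex, 460/530 em), scaled between DMSO (0%) and 10 nM T3 (100%), then Hill-fitted for EC50 and efficacy. HEK 293 TR-UAS-bla cells in 2% charcoal/dextran FBS medium were exposed 18 h at 37 C.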
# [21] = Cell Viability - LYMP2-024 (AID 988; active = well fitted curve in the direction sought with a large enough effect; inconclusive = small, poorly fitted or top-dose-only effect, or another doubt; inactive = no such curve, though single readings can be large; an effect the other way counts as inactive or inconclusive;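 also: cells exposed to compound for 24 hr at 37 °C; plate controls were DMSO only for no effect and 92 µM tetraoctylammonium bromide for full effect; nearly all actives have a fitted effect of over 60% in size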)
# Summary of the method: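 qHTS cytotoxicity, human lymphoblastoid line, complete medium; 24 h cpd treatment, 37 C; CellTiter-Glo ATP luminescence readout; tetraoctylammonium bromide positive control; AC50 via Hill fit.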
# [22] = molecular target: Peroxisome proliferator-activated receptor delta (Homo sapiens) (UniProt Q03181); assay: qHTS assay for small molecule antagonists of peroxisome proliferator-activated receptor delta signaling (AID 588535; active = well fitted inhibition curve with a large enough effect in the signal ratio, with a control signal flat, not every such curve was filed as active; inconclusive = small, poorly fitted or top-dose-only effect, or effect the other way, or a change in a side signal; inactive = no such curve, though single readings can be large or run the other way; the % refers to the signal ratio); details: HEK293T PPARd-UAS-bla, beta-lactamase FRET ratio, 18 h; activity change, negative = inhibition: at 76.7 µM (top of the series) unless noted
# Summary of the method: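 Fluorescence from CCF4-loaded GeneBLAzer PPAR-delta-UAS-bla HEK293T cells (2 hrs RT loading) quantified reporter inhibition after an 18 hr, 37 C compound exposure across a titration.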
# [23] = MultiTox-Fluor Cytotoxicity Assay - LYMP1-002 - Dead Cells (AID 960; active = well fitted curve in the direction sought with a large enough effect; inconclusive = small, poorly fitted or top-dose-only effect, or another doubt; inactive = no such curve, though single readings can be large; an effect the other way counts as inactive or inconclusive; also: potency is read from the fitted curve at half-maximal effect; nearly all actives have a fitted effect of over 60% in size); details: LYMP1-002 lymphoblastoid cells, dead-cell protease fluorescence; cytotoxicity (dead cells): at 46.1 µM (top of the series)
# Summary of the method: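 Cells were plated, rested 5 hr, then treated with compound dilution series for 16 hr at 37 C. After adding substrate reagent and 60 min at room temperature, dead-cell protease fluorescence gave concentration-response curves fitted by the Hill equation.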
structure (smiles),measurement,setting,value
C=CCOC(=O)CC(C)C,Potency,[1],"inconclusive: 0.001 µM [side channel, falling, full curve, poor fit]"
same,Potency,[2],inactive
same,"activity, negative = inhibition",[3],inconclusive: 0.869%
same,activity change % (negative = inhibition),[4],inconclusive: 5%
same,Potency,[5],"inconclusive: 28.2 µM [side channel, falling, partial curve, poor fit]"
CS(=O)(=O)c1ccc(Cl)cc1,Potency,[6],"inconclusive: 5.01 µM [side channel, falling, partial curve, poor fit]"
same,Potency,[7],inactive
CCCCCCC(O)CCCCCCCCCCC(=O)O (stereo not drawn),"activity change, negative = inhibition",[8],inconclusive: -12.6%
same,Potency,[7],inactive
same,activation,[2],inconclusive: 28.8%
same,Potency,[3],inactive
same,Potency,[9],"inconclusive: 22.4 µM [inhibitor, partial curve, poor fit]"
same,activation,[10],inconclusive: 36.5%
same,Potency,[11],active: 31.6 µM
same,Potency,[12],inactive
COc1c2ccoc2cc2oc(=O)ccc12,Potency,[13],inactive
same,Potency,[14],inactive
same,activation,[6],inactive: 3.88%
same,"activity change, negative = inhibition",[8],inconclusive: -54.1%
same,Potency,[3],inactive
same,activation,[15],inconclusive: -11.4%
same,Potency,[16],inactive
same,activation,[17],inconclusive: -0.385%
same,Potency,[18],inactive
CCCN(CCC)c1c([N+](=O)[O-])cc(C(F)(F)F)c(N)c1[N+](=O)[O-],activation,[1],inactive: 9.33%
same,"activity change, negative = inhibition",[19],inconclusive: -50.2%
same,activation,[20],inactive: -6.59%
same,max response,[9],inactive: -37.1%
Cc1ccc(CO)cc1,Potency,[21],inactive
same,activation,[1],inactive: -3.46%
same,Potency,[7],inactive
same,Potency,[22],inactive
same,Potency,[2],inactive
same,Potency,[10],"inconclusive: 75 µM [activator, partial curve, poor fit]"
same,Potency,[17],inactive
OC1CCCC1,Potency,[23],"inconclusive: 0.1 µM [cytotoxic, full curve, poor fit]"
same,Potency,[14],"inconclusive: 2 µM [cytotoxic, full curve, poor fit]"
same,Potency,[8],inactive
same,"activity change, negative = inhibition",[22],inconclusive: 13.9%
same,Potency,[2],inactive
same,Potency,[15],inactive
same,Potency,[10],inactive
same,Potency,[17],inactive
